Reference: article PMC11180176
Results are given in words; binding and its absence hold for the method and conditions named. In cells and extracts the contact can be indirect. Some binding calls cover weakened binding; strength is not graded here. For some of these results: Where a sequence is shown, tags or fusion partners need not be part of it.

By UniProt entry, the sequences of proteins in these tests, tags left out.
UniProt P20823: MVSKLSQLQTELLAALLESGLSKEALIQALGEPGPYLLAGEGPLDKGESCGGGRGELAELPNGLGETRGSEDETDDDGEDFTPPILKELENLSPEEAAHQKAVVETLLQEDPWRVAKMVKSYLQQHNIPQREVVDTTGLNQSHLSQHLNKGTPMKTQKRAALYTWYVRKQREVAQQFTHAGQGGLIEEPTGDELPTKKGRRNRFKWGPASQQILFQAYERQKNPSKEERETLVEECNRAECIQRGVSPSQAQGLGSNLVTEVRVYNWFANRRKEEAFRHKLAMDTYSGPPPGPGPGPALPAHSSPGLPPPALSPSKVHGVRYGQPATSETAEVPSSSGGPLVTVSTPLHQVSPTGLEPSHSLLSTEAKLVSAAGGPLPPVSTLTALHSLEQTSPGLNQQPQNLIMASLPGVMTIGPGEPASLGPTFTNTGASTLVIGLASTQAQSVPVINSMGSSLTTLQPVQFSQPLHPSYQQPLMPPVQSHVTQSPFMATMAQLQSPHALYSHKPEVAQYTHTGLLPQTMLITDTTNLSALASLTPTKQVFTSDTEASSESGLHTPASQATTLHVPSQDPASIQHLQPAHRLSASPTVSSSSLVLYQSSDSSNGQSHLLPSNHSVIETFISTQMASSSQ

Key:
[1] = target: T1, Flag-TRIM8 (Tripartite motif 8) (UniProt Q9BZR9); assay: co-IP; deletion mutants of TRIM8 tested with HNF1α; cells, tags and precipitated partner not told in the text (Supplementary Fig. S5A, B)
T1 sequence: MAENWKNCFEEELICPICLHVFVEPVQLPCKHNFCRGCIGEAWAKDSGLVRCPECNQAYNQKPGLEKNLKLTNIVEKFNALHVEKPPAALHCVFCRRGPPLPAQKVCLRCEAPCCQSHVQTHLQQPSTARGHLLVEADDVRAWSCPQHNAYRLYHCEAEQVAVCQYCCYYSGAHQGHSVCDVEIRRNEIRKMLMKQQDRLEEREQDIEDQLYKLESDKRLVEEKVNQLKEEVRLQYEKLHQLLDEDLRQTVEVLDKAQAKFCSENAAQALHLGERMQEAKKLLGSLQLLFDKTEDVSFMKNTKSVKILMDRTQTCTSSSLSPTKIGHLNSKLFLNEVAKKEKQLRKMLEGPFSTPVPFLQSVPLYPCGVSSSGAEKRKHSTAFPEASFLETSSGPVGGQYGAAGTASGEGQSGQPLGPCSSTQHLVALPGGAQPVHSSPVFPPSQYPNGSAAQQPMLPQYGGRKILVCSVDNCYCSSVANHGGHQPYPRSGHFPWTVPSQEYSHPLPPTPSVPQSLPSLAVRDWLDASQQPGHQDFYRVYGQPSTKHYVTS

[2] = target: T1, Flag-TRIM8 (Tripartite motif 8); assay: co-IP; HEK293T cells transfected with Flag-TRIM8 and V5-HNF1α; IP lysis buffer; anti-Flag or anti-V5 affinity gel overnight at 4 °C; wash buffer 20 mM Tris-HCl pH 7.4, 100 mM NaCl, 0.5% NP40, 0.5% Triton-X100, 10% glycerol
[3] = target: T2, endogenous TRIM8 (Tripartite motif 8) (human (endogenous in Huh7)) (UniProt Q9BZR9); assay: proximity ligation; in situ proximity ligation assay in Huh7 cells
T2 sequence: T1 sequence

[4] = target: T2, endogenous TRIM8 (Tripartite motif 8) (human (endogenous in Huh7)); assay: co-IP; endogenous proteins in Huh7 lysate; TRIM8 antibody (sc-398878) or IgG overnight at 4 °C, protein G agarose

| Substance | binding [1] | binding [2] | binding [3] | binding [4] |
| --- | --- | --- | --- | --- |
| V5-HNF1α (Hepatocyte nuclear factor 1α) (from UniProt P20823 1-631) | binds | binds |  |  |
| endogenous HNF1α (Hepatocyte nuclear factor 1α) (from UniProt P20823 1-631) |  |  | binds | binds |
